This is an account of results in PMC11362597.

Amino acid sequences for entries named in this document (tags omitted).
UniProt P42331: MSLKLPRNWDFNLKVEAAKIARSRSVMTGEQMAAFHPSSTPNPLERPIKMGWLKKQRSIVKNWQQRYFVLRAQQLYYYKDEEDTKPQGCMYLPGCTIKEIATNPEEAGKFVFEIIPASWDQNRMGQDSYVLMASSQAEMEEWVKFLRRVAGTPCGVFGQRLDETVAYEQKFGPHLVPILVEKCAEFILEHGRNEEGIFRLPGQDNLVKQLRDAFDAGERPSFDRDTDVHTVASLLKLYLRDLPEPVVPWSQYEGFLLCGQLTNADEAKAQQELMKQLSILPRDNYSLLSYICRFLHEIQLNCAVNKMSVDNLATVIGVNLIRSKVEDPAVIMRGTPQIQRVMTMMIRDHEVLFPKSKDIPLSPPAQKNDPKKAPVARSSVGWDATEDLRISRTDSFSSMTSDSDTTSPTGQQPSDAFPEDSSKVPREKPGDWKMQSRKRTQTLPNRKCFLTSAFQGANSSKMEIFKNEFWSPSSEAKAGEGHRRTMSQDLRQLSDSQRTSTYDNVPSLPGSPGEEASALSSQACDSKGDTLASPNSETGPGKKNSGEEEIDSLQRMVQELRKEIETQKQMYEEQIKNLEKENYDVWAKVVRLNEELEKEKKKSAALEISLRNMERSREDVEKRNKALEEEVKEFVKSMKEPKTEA
UniProt P84095: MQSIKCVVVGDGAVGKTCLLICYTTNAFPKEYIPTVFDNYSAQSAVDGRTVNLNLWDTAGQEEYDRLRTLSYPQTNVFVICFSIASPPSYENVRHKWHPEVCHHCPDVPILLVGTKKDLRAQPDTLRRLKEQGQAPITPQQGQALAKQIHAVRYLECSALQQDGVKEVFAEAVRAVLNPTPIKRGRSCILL

Results are given in words; binding and its absence hold for the method and conditions named. Binding seen in cells or lysates may run through a third protein. Some binding calls cover weakened binding; strength is not graded here.

The target in assay [1] is GST-fused recombinant ARHGAP25 (human) (UniProt P42331). Put plainly: pull-down; eluates of the GST-ARHGAP25 pull-downs from GTPγS- or GDPβS-loaded neutrophil lysate, immunoblotted; only the target purified.
The target is the same in assay [2]. Description: pull-down; eluates of the GST-ARHGAP25 and GST pull-downs from intact neutrophil lysate, immunoblotted; only the target purified.

With RHOG (from UniProt P84095 1-191), the binding result in assay [1] and in assay [2] was “binds” in each case.
